Results on two molecules are retold here after article PMC10978903.

These are yes or no findings as the source states them, for the method shown. In cells and extracts the contact can be indirect. Some binding calls cover weakened binding; strength is not graded here. Tags and fused reporters may be left off the sequences shown.

For experiment [1], the target named is T1, karyopherin β2 (Kapβ2), endogenous in mouse cortex and spinal cord (mouse (endogenous in cortex and spinal cord)) (UniProt Q8BFY9).
T1 sequence: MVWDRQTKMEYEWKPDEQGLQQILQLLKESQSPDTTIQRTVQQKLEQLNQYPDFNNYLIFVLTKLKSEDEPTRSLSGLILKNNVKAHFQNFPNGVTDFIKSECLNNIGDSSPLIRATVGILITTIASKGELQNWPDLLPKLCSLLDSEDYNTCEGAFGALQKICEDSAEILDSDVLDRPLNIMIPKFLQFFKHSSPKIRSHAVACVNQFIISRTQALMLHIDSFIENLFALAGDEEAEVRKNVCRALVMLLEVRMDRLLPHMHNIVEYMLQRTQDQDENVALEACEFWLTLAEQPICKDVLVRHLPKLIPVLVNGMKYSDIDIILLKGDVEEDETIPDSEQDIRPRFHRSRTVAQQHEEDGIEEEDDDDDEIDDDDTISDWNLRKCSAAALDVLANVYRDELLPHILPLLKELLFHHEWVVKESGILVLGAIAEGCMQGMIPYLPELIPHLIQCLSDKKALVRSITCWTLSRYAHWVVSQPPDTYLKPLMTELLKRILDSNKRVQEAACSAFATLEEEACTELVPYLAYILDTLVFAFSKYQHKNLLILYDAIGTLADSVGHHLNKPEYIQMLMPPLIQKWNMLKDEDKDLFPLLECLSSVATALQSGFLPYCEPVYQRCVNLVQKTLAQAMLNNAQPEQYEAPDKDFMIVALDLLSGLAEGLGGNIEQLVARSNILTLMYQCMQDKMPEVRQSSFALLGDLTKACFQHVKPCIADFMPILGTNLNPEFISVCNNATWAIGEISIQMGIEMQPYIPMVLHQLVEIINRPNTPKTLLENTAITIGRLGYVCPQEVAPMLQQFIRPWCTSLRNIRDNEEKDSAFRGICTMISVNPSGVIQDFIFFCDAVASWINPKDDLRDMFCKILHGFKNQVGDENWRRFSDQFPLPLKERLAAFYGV
As to the kind of experiment: co-IP; reverse co-IP: Kapβ2 antibody cross-linked to magnetic beads (double volume of beads); cortex and spinal cord lysates of Flag-GR50-GFP mice; western blot. Background: In western blotting, separated proteins are transferred to a membrane and probed.

The target in experiment [2] is T2, Flag-GR50-GFP (poly-glycine-arginine, 50 repeats), transgenic mouse.
T2 sequence: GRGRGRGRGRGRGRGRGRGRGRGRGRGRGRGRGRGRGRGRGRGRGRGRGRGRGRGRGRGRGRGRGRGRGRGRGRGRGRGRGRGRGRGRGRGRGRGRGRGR
As to the kind of experiment: co-IP; anti-GFP antibody cross-linked to magnetic beads; cortex and spinal cord lysates of Flag-GR50-GFP mice; non-transgenic tissue and IgG as controls; western blot for GFP and Kapβ2.

B1: Flag-GR50-GFP (poly-glycine-arginine, 50 repeats), transgenic mouse (protein)
chain: T2 sequence
With B1, in experiment [1], the binding entry was “binds”.

B2: karyopherin β2 (Kapβ2), endogenous in mouse cortex and spinal cord (protein, UniProt Q8BFY9 1-898)
chain: T1 sequence
With B2, the binding entry in experiment [2] is on record as “binds”.
